Experimental data from paper doi:10.1101/2022.03.02.482546.

Target: soluble form of full-length LRP1 (low-density lipoprotein receptor-related protein 1) (human)
Assay: ELISA

binding: no binding
B1: recombinant fibulin1C (protein, UniProt P23142-4 30-683)
chain: DVLLEACCADGHRMATHQKDCSLPYATESKECRMVQEQCCHSQLEELHCATGISLANEQDRCATPHGDNASLEATFVKRCCHCCLLGRAAQAQGQSCEYSLMVGYQCGQVFQACCVKSQETGDLDVGGLQETDKIIEVEEEQEDPYLNDRCRGGGPCKQQCRDTGDEVVCSCFVGYQLLSDGVSCEDVNECITGSHSCRLGESCINTVGSFRCQRDSSCGTGYELTEDNSCKDIDECESGIHNCLPDFICQNTLGSFRCRPKLQCKSGFIQDALGNCIDINECLSISAPCPIGHTCINTEGSYTCQKNVPNCGRGYHLNEEGTRCVDVDECAPPAEPCGKGHRCVNSPGSFRCECKTGYYFDGISRMCVDVNECQRYPGRLCGHKCENTLGSYLCSCSVGFRLSVDGRSCEDINECSSSPCSQECANVYGSYQCYCRRGYQLSDVDGVTCEDIDECALPTGGHICSYRCINIPGSFQCSCPSSGYRLAPNGRNCQDIDECVTGIHNCSINETCFNIQGGFRCLAFECPENYRRSAATRCERLPCHENRECSKLPLRITYYHLSFPTNIQAPAVVFRMGPSSAVPGDSMQLAITGGNEEGFFTTRKVSPHSGVVALTKPVPEPRDLLLTVKMDLSRHGTVSSFVAKLFIFVSAEL

These are yes or no findings as the source states them, for the method shown.
